Assay [1] has as its target T1, Ndel1 (rat (endogenous in sciatic nerve and spinal cord)) (UniProt Q78PB6).
T1 sequence: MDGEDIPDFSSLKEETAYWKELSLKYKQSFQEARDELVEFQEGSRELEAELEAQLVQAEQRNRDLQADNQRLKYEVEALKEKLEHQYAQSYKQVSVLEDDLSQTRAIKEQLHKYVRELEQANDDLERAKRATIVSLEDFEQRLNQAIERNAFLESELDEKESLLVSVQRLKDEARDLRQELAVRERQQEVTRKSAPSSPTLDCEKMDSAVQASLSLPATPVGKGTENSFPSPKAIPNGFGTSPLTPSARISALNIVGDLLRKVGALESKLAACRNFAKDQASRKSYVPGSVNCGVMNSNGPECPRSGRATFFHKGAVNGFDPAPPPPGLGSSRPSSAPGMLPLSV
As to the kind of experiment: co-IP; immunoprecipitation with Ndel1 antibodies from sciatic nerve soluble lysates, proximal and distal segments 3-12 h after crush.

Protein sequences, listed by entry. Tags and fused reporters are not part of them.
UniProt P21807: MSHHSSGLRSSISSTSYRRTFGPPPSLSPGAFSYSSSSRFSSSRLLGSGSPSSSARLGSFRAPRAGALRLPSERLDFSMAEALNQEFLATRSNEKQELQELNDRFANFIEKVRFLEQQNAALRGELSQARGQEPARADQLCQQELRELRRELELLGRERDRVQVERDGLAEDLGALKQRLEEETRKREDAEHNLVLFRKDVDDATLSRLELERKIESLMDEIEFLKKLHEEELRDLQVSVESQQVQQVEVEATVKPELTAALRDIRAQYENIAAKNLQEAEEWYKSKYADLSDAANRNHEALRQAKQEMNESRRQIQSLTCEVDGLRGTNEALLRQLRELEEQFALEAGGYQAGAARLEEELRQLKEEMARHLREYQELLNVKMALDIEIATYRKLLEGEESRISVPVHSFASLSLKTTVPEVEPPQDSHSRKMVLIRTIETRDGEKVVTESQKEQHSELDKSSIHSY
UniProt P31000: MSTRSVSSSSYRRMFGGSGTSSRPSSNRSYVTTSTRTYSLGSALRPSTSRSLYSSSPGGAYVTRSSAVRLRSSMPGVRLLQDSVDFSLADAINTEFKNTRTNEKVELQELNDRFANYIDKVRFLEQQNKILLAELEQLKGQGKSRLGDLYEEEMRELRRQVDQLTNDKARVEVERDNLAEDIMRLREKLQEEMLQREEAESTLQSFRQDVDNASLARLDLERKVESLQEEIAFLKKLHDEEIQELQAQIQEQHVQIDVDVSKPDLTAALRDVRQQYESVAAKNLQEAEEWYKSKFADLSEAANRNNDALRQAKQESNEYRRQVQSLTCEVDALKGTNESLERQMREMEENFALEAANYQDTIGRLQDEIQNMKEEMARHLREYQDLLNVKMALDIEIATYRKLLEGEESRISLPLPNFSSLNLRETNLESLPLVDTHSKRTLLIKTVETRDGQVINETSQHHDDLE

For assay [2], the target named is T1, Ndel1 (rat (endogenous in sciatic nerve and spinal cord)). As to the kind of experiment: co-IP; immunoprecipitation with Ndel1 antibodies from axonal cytoskeletal preparations from spinal cord, buffers without detergent; no antibodies and GFP antibodies as negative controls.
The target is the same in assay [3]. As to the kind of experiment: co-IP; immunoprecipitation with Ndel1 antibodies from sciatic nerve soluble lysates (buffers without detergent), proximal and distal segments and non-injured contralateral side; two weeks after crush, 65 hours after transection.
For assay [4] the target is unchanged. As to the kind of experiment: co-IP; immunoprecipitation with Ndel1 antibodies from axoplasm of sciatic nerves isolated in detergent-free buffers (PBS or Tris-NaCl); non-injured, crushed and transected nerves; no antibodies and GFP antibodies as negative controls.
Assay [5] has the same target. As to the kind of experiment: co-IP; spinal cord and nerve lysates; immunoprecipitation in both directions (Ndel1 and Peripherin); HA antibodies as control.
For assay [6], the target named is Peripherin (rat (endogenous in spinal cord and nerves)) (UniProt P21807). The assay is described as above.
Assay [7] concerns the target T1, Ndel1 (rat (endogenous in sciatic nerve and spinal cord)). The assay can be described thus: co-IP; immunoprecipitation with Ndel1 antibodies from sciatic nerve soluble lysates (buffers without detergent), proximal and distal segments and non-injured contralateral side; two weeks after crush, 65 hours after transection. The source holds these as a separate data set.

Results are given in words; binding and its absence hold for the method and conditions named. In cells and extracts the contact can be indirect. Some binding calls cover weakened binding; strength is not graded here.

As to “Vimentin full length (from UniProt P31000 1-466)”, the binding result is listed as “no binding (condition: 3-12 h after sciatic nerve crush)” in assay [1], “binds” in assay [2], “binds” in assay [3] and “binds” in assay [4].

Consider Peripherin (from UniProt P21807 1-468), for which the binding entry in assay [5] was “no binding”.

B1: Ndel1 (protein, UniProt Q78PB6 1-345)
chain: MDGEDIPDFSSLKEETAYWKELSLKYKQSFQEARDELVEFQEGSRELEAELEAQLVQAEQRNRDLQADNQRLKYEVEALKEKLEHQYAQSYKQVSVLEDDLSQTRAIKEQLHKYVRELEQANDDLERAKRATIVSLEDFEQRLNQAIERNAFLESELDEKESLLVSVQRLKDEARDLRQELAVRERQQEVTRKSAPSSPTLDCEKMDSAVQASLSLPATPVGKGTENSFPSPKAIPNGFGTSPLTPSARISALNIVGDLLRKVGALESKLAACRNFAKDQASRKSYVPGSVNCGVMNSNGPECPRSGRATFFHKGAVNGFDPAPPPPGLGSSRPSSAPGMLPLSV
Turning to B1, the binding entry in assay [6] is recorded as “no binding”.

B2: Neurofilament light chain (protein, UniProt P19527 1-542)
chain: MSSFSYEPYFSTSYKRRYVETPRVHISSVRSGYSTARSAYSSYSAPVSSSLSVRRSYSSSSGSLMPSLENLDLSQVAAISNDLKSIRTQEKAQLQDLNDRFASFIERVHELEQQNKVLEAELLVLRQKHSEPSRFRALYEQEIRDLRLAAEDATNEKQALQGEREGLEETLRNLQARYEEEVLSREDAEGRLMEARKGADEAALARAELEKRIDSLMDEIAFLKKVHEEEIAELQAQIQYAQISVEMDVSSKPDLSAALKDIRAQYEKLAAKNMQNAEEWFKSRFTVLTESAAKNTDAVRAAKDEVSESRRLLKAKTLEIEACRGMNEALEKQLQELEDKQNADISAMQDTINKLENELRSTKSEMARYLKEYQDLLNVKMALDIEIAAYRKLLEGEETRLSFTSVGSITSGYSQSSQVFGRSAYSGLQSSSYLMSARAFPAYYTSHVQEEQSEVEETIEATKAEEAKDEPPSEGEAEEEEKEKEEGEEEEGAEEEEAAKDESEDAKEEEGGEGEEEDTKESEEEEKKEESAGEEQAAKKKD
Consider B2, for which the binding entry in assay [7] is listed as “binds”.

These data come from publication PMC2291557.
